The values below are quoted from earlier work in patent publication US7244431B2, “Allergy vaccines and their preparation” (priority 2000, dated 2007).

Some entries repeat one wording, which the source may state once for all of them.

This data set has as its system Bet v 1-specific human T cells. To be noted: presence of Bet v 1-specific T cell epitopes; cited from earlier work.
With “MGVFNYETETTSVIPAARLFKAFIC [Peptide P1, Bet v 1-derived synthetic peptide, position aa 1-24, one cysteine added]”, the T cell epitope result was “do not contain Bet v 1-specific T cell epitopes”.

In the case of “CKAEQVKASKEMGETLLRAVESYLLAHSDAYN [Peptide P5, Bet v 1-derived synthetic peptide, position aa 130-160, one cysteine added]”, the T cell epitope result is on record as “comprise sequence motifs which were found to stimulate Bet v 1-specific human T cells”.

On to “LFPKVAPQAISSVENIEGNGGPGTIKKISFC [Peptide P2, Bet v 1-derived synthetic peptide, position aa 30-59, one cysteine added]”, for which the T cell epitope entry is “do not contain Bet v 1-specific T cell epitopes”.

Turning to “CGPGTIKKISFPEGFPFKYVKDRVDEVDHTN [Peptide P3, Bet v 1-derived synthetic peptide, position aa 50-79, one cysteine added]”, the T cell epitope result is listed as “do not contain Bet v 1-specific T cell epitopes”. For the sequence “CVDHTNFKYNYSVIEGGPIGDTLEKISNEIK [Peptide P6, Bet v 1-derived synthetic peptide, position aa 75-104, one cysteine added]”, the T cell epitope entry was “comprise sequence motifs which were found to stimulate Bet v 1-specific human T cells”. Regarding “DGGSILKISNKYHTKGDHEVKAEQVKASKEC [Peptide P4, Bet v 1-derived synthetic peptide, position aa 110-139, one cysteine added]”, the T cell epitope entry was “comprise sequence motifs which were found to stimulate Bet v 1-specific human T cells”.
